± gives the standard deviation of the averaged measurements. The entries are a selection whose mix differs from that of the whole data set.
What was measured:
Test in all cases: NP40-soluble protein abundance relative to vehicle (solubility fold change) (ratio); higher = more soluble protein in presence of AMP-PNP
[1] = biological target: T1, SERGEF (UniProt Q9UGK8)
T1 sequence (whole entry): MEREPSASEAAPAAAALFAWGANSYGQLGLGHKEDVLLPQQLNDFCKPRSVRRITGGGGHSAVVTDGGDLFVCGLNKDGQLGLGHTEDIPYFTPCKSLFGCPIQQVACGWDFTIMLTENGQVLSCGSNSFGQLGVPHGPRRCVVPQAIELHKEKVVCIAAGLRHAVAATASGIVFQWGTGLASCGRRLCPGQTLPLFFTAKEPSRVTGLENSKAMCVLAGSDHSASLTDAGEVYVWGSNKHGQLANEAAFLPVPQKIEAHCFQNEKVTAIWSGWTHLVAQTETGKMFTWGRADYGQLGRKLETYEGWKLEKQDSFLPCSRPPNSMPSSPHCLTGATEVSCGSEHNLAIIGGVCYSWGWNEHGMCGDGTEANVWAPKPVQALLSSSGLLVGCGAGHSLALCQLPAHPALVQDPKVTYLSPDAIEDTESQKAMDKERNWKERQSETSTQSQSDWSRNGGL
Procedure, shortened: (§1)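 Across three independent experiments, values are fold changes against the detergent-processed vehicle for each replicate, based on vsn-normalised intensities. The samples were Jurkat crude lysate treated with eight concentrations (0.1 to 10 mM) for 10 min at room temperature and then 3 min at 37 °C. Lysate was solubilised with 0.8% NP40 and benzonase, ultracentrifuged, and the supernatant analysed by TMT-labelled LC-MS/MS.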

[2] = biological target: T2, SNX6 (UniProt Q9UNH7)
T2 sequence (whole entry): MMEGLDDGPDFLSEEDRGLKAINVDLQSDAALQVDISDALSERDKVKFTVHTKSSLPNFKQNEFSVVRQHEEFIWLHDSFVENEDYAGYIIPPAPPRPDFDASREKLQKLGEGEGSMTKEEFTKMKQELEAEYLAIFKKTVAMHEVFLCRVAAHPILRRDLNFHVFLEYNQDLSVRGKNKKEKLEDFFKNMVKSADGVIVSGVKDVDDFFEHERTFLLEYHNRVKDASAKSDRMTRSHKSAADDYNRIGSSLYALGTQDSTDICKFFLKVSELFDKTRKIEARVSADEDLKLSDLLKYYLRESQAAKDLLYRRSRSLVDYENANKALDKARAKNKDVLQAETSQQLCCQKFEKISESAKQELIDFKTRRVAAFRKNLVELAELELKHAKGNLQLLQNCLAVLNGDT
Procedure, shortened: as §1

[3] = biological target: T3, UniProt Q9UJ68 and related entries
T3 sequence (whole entry): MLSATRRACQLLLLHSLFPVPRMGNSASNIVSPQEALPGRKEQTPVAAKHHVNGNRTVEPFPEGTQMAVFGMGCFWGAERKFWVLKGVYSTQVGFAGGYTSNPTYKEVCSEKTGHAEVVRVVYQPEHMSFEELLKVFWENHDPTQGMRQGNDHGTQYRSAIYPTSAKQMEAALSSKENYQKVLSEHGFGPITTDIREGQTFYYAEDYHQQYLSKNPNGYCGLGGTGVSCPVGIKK
Procedure, shortened: as §1

[4] = biological target: T4, UniProt Q9UJS0 and related entries
T4 sequence (whole entry): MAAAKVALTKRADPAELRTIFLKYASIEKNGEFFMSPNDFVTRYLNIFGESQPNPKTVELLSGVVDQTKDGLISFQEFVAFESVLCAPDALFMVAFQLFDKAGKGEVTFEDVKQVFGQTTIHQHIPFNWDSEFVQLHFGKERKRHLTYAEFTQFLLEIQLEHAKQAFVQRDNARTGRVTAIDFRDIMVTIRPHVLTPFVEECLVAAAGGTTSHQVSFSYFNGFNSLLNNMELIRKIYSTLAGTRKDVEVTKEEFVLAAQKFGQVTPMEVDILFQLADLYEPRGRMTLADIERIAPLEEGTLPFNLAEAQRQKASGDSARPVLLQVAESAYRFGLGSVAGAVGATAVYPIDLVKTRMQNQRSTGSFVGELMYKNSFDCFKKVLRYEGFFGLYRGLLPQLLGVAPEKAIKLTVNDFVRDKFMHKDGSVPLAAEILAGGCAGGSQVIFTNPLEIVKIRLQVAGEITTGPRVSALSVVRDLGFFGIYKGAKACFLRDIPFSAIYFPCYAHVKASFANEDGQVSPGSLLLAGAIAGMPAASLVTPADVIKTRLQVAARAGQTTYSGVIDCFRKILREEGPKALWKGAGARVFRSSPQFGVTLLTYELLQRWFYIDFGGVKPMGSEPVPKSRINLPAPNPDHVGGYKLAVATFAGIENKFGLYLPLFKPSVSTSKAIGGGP
Procedure, shortened: as §1

[5] = biological target: T5, UniProt Q9ULD0
T5 sequence (whole entry): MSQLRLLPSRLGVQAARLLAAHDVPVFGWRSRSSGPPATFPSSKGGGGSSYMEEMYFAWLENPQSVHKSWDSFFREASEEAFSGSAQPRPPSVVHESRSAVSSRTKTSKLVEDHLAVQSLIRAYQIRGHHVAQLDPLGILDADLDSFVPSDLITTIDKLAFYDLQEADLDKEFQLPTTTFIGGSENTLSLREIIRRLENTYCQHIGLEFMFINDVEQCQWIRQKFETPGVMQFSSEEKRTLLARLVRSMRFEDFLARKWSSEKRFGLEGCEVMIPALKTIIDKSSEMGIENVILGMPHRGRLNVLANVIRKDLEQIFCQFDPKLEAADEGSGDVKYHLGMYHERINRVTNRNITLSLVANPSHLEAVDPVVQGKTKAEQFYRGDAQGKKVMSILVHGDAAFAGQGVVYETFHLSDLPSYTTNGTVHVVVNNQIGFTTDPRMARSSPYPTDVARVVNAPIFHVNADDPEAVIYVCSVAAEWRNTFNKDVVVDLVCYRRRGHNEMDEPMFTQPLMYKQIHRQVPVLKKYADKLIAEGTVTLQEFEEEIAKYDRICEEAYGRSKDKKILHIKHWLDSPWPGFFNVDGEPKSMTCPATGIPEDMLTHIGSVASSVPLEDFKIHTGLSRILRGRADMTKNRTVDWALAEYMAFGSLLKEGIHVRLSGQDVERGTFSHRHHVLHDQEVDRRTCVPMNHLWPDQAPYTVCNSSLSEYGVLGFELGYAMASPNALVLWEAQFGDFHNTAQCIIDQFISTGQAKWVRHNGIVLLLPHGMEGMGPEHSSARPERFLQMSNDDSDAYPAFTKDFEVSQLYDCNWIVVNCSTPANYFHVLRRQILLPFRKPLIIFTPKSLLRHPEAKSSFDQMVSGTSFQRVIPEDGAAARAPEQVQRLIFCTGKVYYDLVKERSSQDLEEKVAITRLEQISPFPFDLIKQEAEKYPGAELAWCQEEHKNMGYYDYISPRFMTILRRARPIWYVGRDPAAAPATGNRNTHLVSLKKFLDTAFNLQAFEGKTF
Procedure, shortened: as §1

[6] = biological target: T6, UniProt Q9UPU7 and related entries; settings: concentration: 1mM
T6 sequence (whole entry): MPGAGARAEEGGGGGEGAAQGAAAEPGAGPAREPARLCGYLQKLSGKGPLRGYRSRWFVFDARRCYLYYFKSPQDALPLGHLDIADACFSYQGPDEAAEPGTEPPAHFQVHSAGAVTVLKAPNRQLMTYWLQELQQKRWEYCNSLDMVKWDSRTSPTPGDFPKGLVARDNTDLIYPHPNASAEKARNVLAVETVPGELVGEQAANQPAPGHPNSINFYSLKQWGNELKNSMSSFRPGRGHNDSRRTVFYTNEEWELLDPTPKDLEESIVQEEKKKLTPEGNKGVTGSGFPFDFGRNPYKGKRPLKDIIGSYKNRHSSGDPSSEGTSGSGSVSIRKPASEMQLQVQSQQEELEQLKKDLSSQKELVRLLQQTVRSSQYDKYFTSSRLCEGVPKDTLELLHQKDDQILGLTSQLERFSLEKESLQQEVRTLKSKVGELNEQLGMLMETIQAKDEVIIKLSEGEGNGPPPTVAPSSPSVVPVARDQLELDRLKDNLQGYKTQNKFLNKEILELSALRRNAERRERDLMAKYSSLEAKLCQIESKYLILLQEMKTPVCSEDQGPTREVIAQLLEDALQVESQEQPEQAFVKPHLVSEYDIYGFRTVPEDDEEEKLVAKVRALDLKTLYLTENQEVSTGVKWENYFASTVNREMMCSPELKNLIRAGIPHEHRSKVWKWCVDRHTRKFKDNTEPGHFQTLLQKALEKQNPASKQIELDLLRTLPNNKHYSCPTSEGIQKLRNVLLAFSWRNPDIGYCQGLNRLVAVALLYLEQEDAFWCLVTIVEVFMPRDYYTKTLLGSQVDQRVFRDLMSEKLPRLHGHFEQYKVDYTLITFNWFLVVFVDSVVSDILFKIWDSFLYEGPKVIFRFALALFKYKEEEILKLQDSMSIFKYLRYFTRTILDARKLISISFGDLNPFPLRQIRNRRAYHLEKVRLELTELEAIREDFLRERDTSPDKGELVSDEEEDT
Procedure, shortened: as §1

Nc1ncnc2c1ncn2[C@@H]1O[C@H](COP(=O)(O)OP(=O)(O)NP(=O)(O)O)[C@@H](O)[C@H]1O [adenylyl imidodiphosphate]
NP40-soluble protein abundance ([1]; concentration: 6mM): 0.985 ± 0.048
NP40-soluble protein abundance ([1]; concentration: 8mM): 0.996 ± 0.031
NP40-soluble protein abundance ([1]; concentration: 10mM): 0.951 ± 0.048
NP40-soluble protein abundance ([2]; concentration: 1mM): 0.992 ± 0.031
NP40-soluble protein abundance ([2]; concentration: 2mM): 1.03 ± 0.12
NP40-soluble protein abundance ([2]; concentration: 4mM): 0.991 ± 0.069
NP40-soluble protein abundance ([2]; concentration: 6mM): 1.03 ± 0.076
NP40-soluble protein abundance ([2]; concentration: 8mM): 1 ± 0.077
NP40-soluble protein abundance ([2]; concentration: 10mM): 1.03 ± 0.079
NP40-soluble protein abundance ([3]; concentration: 1mM): 1.06 ± 0.11
NP40-soluble protein abundance ([3]; concentration: 2mM): 1.03 ± 0.028
NP40-soluble protein abundance ([3]; concentration: 4mM): 0.994 ± 0.041
NP40-soluble protein abundance ([3]; concentration: 6mM): 0.995 ± 0.035
NP40-soluble protein abundance ([3]; concentration: 8mM): 0.997 ± 0.037
NP40-soluble protein abundance ([3]; concentration: 10mM): 1.001 ± 0.0044
NP40-soluble protein abundance ([4]; concentration: 1mM): 1.02 ± 0.016
NP40-soluble protein abundance ([4]; concentration: 2mM): 1.01 ± 0.047
NP40-soluble protein abundance ([4]; concentration: 4mM): 1.018 ± 0.0089
NP40-soluble protein abundance ([4]; concentration: 6mM): 1.01 ± 0.035
NP40-soluble protein abundance ([4]; concentration: 8mM): 0.998 ± 0.029
NP40-soluble protein abundance ([4]; concentration: 10mM): 1.01 ± 0.049
NP40-soluble protein abundance ([5]; concentration: 1mM): 0.961 ± 0.04
NP40-soluble protein abundance ([5]; concentration: 2mM): 0.955 ± 0.076
NP40-soluble protein abundance ([5]; concentration: 4mM): 0.9642 ± 0.0088
NP40-soluble protein abundance ([5]; concentration: 6mM): 0.987 ± 0.019
NP40-soluble protein abundance ([5]; concentration: 8mM): 0.964 ± 0.056
NP40-soluble protein abundance ([5]; concentration: 10mM): 0.956 ± 0.052
NP40-soluble protein abundance [6]: 0.996 ± 0.013

From the supplement of paper PMC6411743
